# Measurements as given in the supplement of paper PMC6414424.
# Where a name gives a salt, the structure may show the parent alone. ± gives the standard deviation of the averaged measurements. The list shows a part of the results.
# Test system: APPdp1-6 iPSC-derived neurons
# Experiment: pThr231Tau/total Tau ratio Z-score vs DMSO vehicle wells; higher = more pThr231Tau relative to total Tau
# Details: 5 µM; treatment time 5 days
row,SMILES,pThr231Tau/total Tau ratio Z-score
1,NCC(O)CC(=O)O (stereo not drawn) [AMINOHYDROXYBUTYRIC ACID    Therap cat: antiepileptic],1.49 ± 0.057
2,CC(=O)OCC(CCn1cnc2cnc(N)nc21)COC(C)=O [Prestw-1249],-0.937 ± 0.0037
3,NNc1nncc2ccccc12 [Prestw-169],-0.0268 ± 0.2
4,C1CNCCN1 [PIPERAZINE    Therap cat: anthelmintic (Nematodes)],0.471 ± 1.3
5,COc1c2occc2c(OC)c2c(=O)cc(C)oc12 [Prestw-91],-0.927 ± 0.92
6,CC[C@H](C)C(=O)O[C@H]1CCC=C2C=C[C@H](C)[C@H](CC[C@@H]3C[C@@H](O)CC(=O)O3)[C@H]21 [Prestw-1441],-1.42 ± 1.4
7,Nc1cc(C(Cl)=C(Cl)Cl)c(S(N)(=O)=O)cc1S(N)(=O)=O [Prestw-540],-0.0793 ± 1.6
8,Cc1c(N(C)CS(=O)(=O)O)c(=O)n(-c2ccccc2)n1C [Prestw-713],-0.829 ± 1.4
9,CNCC(O)c1ccc(OC(=O)C(C)(C)C)c(OC(=O)C(C)(C)C)c1 (stereo not drawn) [Prestw-632],1.25 ± 0.52
10,CCN(CC)CCc1nc(-c2ccccc2)no1 [Prestw-826],-0.393 ± 1.9
11,CCc1cn([C@H]2C[C@H](O)[C@@H](CO)O2)c(=O)[nH]c1=O [EDOXUDINE    Therap cat: antiviral],0.43 ± 1.2
12,CC(C)NC[C@@H](O)COc1cccc2ccccc12 [Prestw-1081],0.372 ± 0.83
13,CC(C)NC[C@@H](O)COc1cccc2ccccc12 [Prestw-1075],0.717 ± 0.12
14,Oc1cc(O)c2c(c1)O[C@@H](c1ccc(O)c(O)c1)[C@H](O)C2 [Catechin],-1.16 ± 1.8
15,CCCNCC(O)COc1ccccc1C(=O)CCc1ccccc1 (stereo not drawn) [Prestw-499],-0.889 ± 1.6
16,NC(=O)C(c1ccccc1)(c1ccccc1)[C@@H]1CCN(CCc2ccc3c(c2)CCO3)C1 [Prestw-1514],-0.0439 ± 0.33
17,COc1cc([C@@H]2c3cc4c(cc3[C@@H](O[C@@H]3O[C@@H]5CO[C@@H](C)O[C@H]5[C@H](O)[C@H]3O)[C@H]3COC(=O)[C@H]23)OCO4)cc(OC)c1O [Prestw-396],-1.94 ± 0.88
18,COc1ccccc1OCC(O)CN1CCN(CC(=O)Nc2c(C)cccc2C)CC1 (stereo not drawn) [Prestw-1092],0.448 ± 0.52
19,C[C@H]1C[C@@H]2[C@H]([C@@H](O)C[C@@]3(C)[C@H]2CC[C@]3(O)C(=O)CO)[C@@]2(C)C=CC(=O)C=C12 [Prestw-279],-0.105 ± 0.027
20,CC(=O)O[C@]1(C(C)=O)CC[C@H]2[C@@H]3C[C@H](C)C4=CC(=O)CC[C@]4(C)[C@H]3CC[C@@]21C,0.567 ± 1.5
21,O=C(O)c1cc(-c2ccccc2)nc2ccccc12,0.461 ± 0.32

# Part of the list above, bar-delimited:
row | SMILES | pThr231Tau/total Tau ratio Z-score
9 | CNCC(O)c1ccc(OC(=O)C(C)(C)C)c(OC(=O)C(C)(C)C)c1 (stereo not drawn) [Prestw-632] | 1.25 ± 0.52
10 | CCN(CC)CCc1nc(-c2ccccc2)no1 [Prestw-826] | -0.393 ± 1.9
11 | CCc1cn([C@H]2C[C@H](O)[C@@H](CO)O2)c(=O)[nH]c1=O [EDOXUDINE    Therap cat: antiviral] | 0.43 ± 1.2

# Next records:

row,SMILES,pThr231Tau/total Tau ratio Z-score
1,CC(C)NCC(O)c1ccc2ccccc2c1 (stereo not drawn) [Prestw-974],-0.774 ± 0.44
2,Nc1nc2n[nH]nc2c(=O)[nH]1 [Prestw-1],0.436 ± 0.22
3,CN(C)c1nc(N(C)C)nc(N(C)C)n1 [Prestw-946],-0.17 ± 0.39
4,NC(=O)c1ccc([N+](=O)[O-])cc1Cl [AKLOMIDE    Therap cat: antiprotosoal],1.82 ± 1.6
5,O=C1OCCN1/N=C/c1ccc([N+](=O)[O-])o1 [Prestw-808],-0.113 ± 0.3
6,Cc1c(O)c(=O)ccn1C,1.36 ± 0.81
7,O=S(=O)(O)c1cc(O)ccc1O [Prestw-1015],-0.352 ± 0.89
8,CCC(=O)O[C@]1(C(=O)CCl)[C@@H](C)C[C@H]2[C@@H]3CCC4=CC(=O)C=C[C@]4(C)[C@@]3(F)[C@@H](O)C[C@@]21C [Prestw-781],-0.0907 ± 0.94
9,c1ccc([C@H]2CN3CCSC3=N2)cc1 [Prestw-182],0.0644 ± 0.63
10,COc1ccc(C2CNC(=O)C2)cc1OC1CCCC1 (stereo not drawn) [Prestw-924],1.94 ± 2.5
11,COc1ccc2[nH]cc(CCNC(C)=O)c2c1 [Prestw-458],0.382 ± 0.086
12,NC[C@H]1O[C@H](O[C@H]2[C@H](O[C@@H]3O[C@H](CO)[C@@H](O)[C@H]3O)[C@@H](O)[C@H](N)C[C@@H]2N)[C@H](N)[C@@H](O)[C@@H]1O [Prestw-758],0.93 ± 0.84
13,COc1ccc(C(=O)NCc2cccnc2)cc1C(=O)NCc1cccnc1 [Prestw-119],0.166 ± 0.26
14,CN(C)CCOC1=Cc2ccccc2Sc2ccc(Cl)cc21 [Prestw-1368],-1.47 ± 0.36
15,CCN(Cc1ccncc1)C(=O)C(CO)c1ccccc1 (stereo not drawn) [Prestw-228],-0.0495 ± 1.1
16,O=C(NCCNCC(O)COc1ccc(O)cc1)N1CCOCC1 (stereo not drawn) [Prestw-923],1.08 ± 0.73
17,Cc1ncc([N+](=O)[O-])n1CCO [Prestw-81],-0.0106 ± 0.53
18,CCN(CC)CC#CCOC(=O)C(O)(c1ccccc1)C1CCCCC1 (stereo not drawn) [Prestw-287],-0.0872 ± 0.44
19,OC(CCN1CCCCC1)(c1ccccc1)C1CC2C=CC1C2 (stereo not drawn) [Prestw-502],0.341 ± 0.23
20,CN1C2CCCC1CC(NC(=O)c1nn(C)c3ccccc13)C2 (stereo not drawn) [Prestw-1187],0.467 ± 0.035
21,CC(C)N1CCN(c2ccc(OCC3COC(Cn4cncn4)(c4ccc(Cl)cc4Cl)O3)cc2)CC1 (stereo not drawn) [Prestw-495],-1.22 ± 0.028

row,SMILES,pThr231Tau/total Tau ratio Z-score
1,O=C(CCCN1CC=C(n2c(=O)[nH]c3ccccc32)CC1)c1ccc(F)cc1 [Prestw-360],-1.55 ± 0.81
2,CCN(CC)CCNC(=O)c1cc(S(C)(=O)=O)ccc1OC [Prestw-216],-0.741 ± 0.31
3,Oc1c(I)cc(I)c2cccnc12 [IODOQUINOL    Therap cat:  Anti-amebic],1.11 ± 1.1
4,C#CCN(C)Cc1ccccc1 [Prestw-183],0.256 ± 1.9
5,C[C@H]1[C@@H](O)O[C@@H]2O[C@@]3(C)CC[C@H]4[C@H](C)CC[C@@H]1[C@@]24OO3,-0.507 ± 1.1
6,CCn1cc(C(=O)O)c(=O)c2ccc(C)nc21 [Prestw-1447],0.232 ± 0.42
7,COc1ccc2cc(CCC(C)=O)ccc2c1 [Prestw-909],-0.846 ± 0.83
8,O=C(O)CCC(=O)OC[C@@H](NC(=O)C(Cl)Cl)[C@H](O)c1ccc([N+](=O)[O-])cc1,1.11 ± 2.5
9,O[C@H]1[C@H](O)[C@@H](O)[C@H](O)[C@@H](O)[C@@H]1O [Scyllitol],-0.682 ± 0.15
10,CC(=O)N[C@@H](CC(=O)N[C@@H](CCC(=O)O)C(=O)O)C(=O)O,-0.0487 ± 0.46
11,CC(=O)N[C@@H](CC(=O)N[C@@H](CCC(=O)O)C(=O)O)C(=O)O [Prestw-1091],0.251 ± 0.12
12,Cc1ccc(S(=O)(=O)NC(=O)NN2CC3CCCC3C2)cc1 (stereo not drawn) [Prestw-558],0.182 ± 1.8
13,COc1cc2nc(N3CCN(C(=O)c4ccco4)CC3)nc(N)c2cc1OC [Prestw-947],-1.09 ± 0.57
14,NCCS(=O)(=O)O [Taurine],0.707 ± 0.41
15,CCn1cc(C(=O)O)c(=O)c2cnc(N3CCNCC3)nc21 [Prestw-897],0.177 ± 0.38
16,COc1nc(C)nc(Cl)c1NC1=NCCN1 [Prestw-1016],0.62 ± 0.048
17,CCCCC(C)(O)C/C=C/[C@H]1[C@H](O)CC(=O)[C@@H]1CCCCCCC(=O)OC (stereo partly drawn) [Prestw-1443],0.0991 ± 0.38
18,Cc1ncc(CSSCc2cnc(C)c(O)c2CO)c(CO)c1O,-0.132 ± 0.75
19,CC(=O)Oc1cccc2c1C(=O)c1c(OC(C)=O)cc(C(=O)O)cc1C2=O [Prestw-1167],0.965 ± 2.9
20,C=C1C[C@H]2[C@@H]3C=C(C)C4=CC(=O)CC[C@]4(C)[C@H]3CC[C@]2(C)[C@@]1(OC(C)=O)C(C)=O [Prestw-1435],-0.271 ± 1.4
21,N[C@H]1C(O)O[C@H](CO)[C@@H](O)[C@@H]1O (stereo partly drawn) [GLUCOSAMINE HYDROCHLORIDE    Therap cat:  Antiarthritic],-0.236 ± 0.42

row,SMILES,pThr231Tau/total Tau ratio Z-score
1,OCCN1CCN(CCCN2c3ccccc3Sc3ccc(Cl)cc32)CC1 [Prestw-125],-2.44 ± 0.99
2,"CN(C)CCc1c[nH]c2ccc(Cn3cncn3)cc12 [RIZATRIPTAN BENZOATE, 5HT-1B/1D agonist, antimigraine]",-1.3 ± 0.24
3,Nc1ccc(S(=O)(=O)c2ccc(N)cc2)cc1 [Prestw-35],-0.0475 ± 0.99
4,OC[C@H]1O[C@@H](Oc2ccc(O)cc2)[C@H](O)[C@@H](O)[C@@H]1O [Prestw-1026],-0.776 ± 1.2
5,"CCCCC(=O)N(Cc1ccc(-c2ccccc2-c2nn[nH]n2)cc1)[C@H](C(=O)O)C(C)C [VALSARTAN, Angiotensin II inhibitor, antihypertensive]",0.341 ± 0.87
6,N=C(N)NCC1COC2(CCCCC2)O1 (stereo not drawn) [Prestw-767],0.478 ± 1.6
7,CC1(C)OC(=O)NC1=O [Prestw-829],0.348 ± 1.7
8,Nc1ccc(C(=O)NCC(=O)O)cc1 [Prestw-895],-0.167 ± 1.1
9,COc1ccc(NS(=O)(=O)c2ccc(N)cc2)nn1 [Prestw-724],-1.11 ± 0.37
10,Cn1nnnc1SCC1=C(C(=O)O)N2C(=O)[C@@H](NC(=O)[C@H](O)c3ccccc3)[C@H]2SC1 [Prestw-747],-1.33 ± 0.54
11,CCC[C@H](N[C@@H](C)C(=O)N1[C@H](C(=O)O)C[C@@H]2CCCC[C@@H]21)C(=O)OCC [Prestw-1101],1.06 ± 0.87
12,CC(C)[C@H](N)C(=O)OCCOCn1cnc2c(=O)[nH]c(N)nc21 [Prestw-1505],1.48 ± 1.3
13,CN(C)C(=N)N=C(N)N [Prestw-4],0.2 ± 1
14,CO[C@@H]1[C@@H](OC(N)=O)[C@@H](O)[C@H](Oc2ccc3c(O)c(NC(=O)c4ccc(O)c(CC=C(C)C)c4)c(=O)oc3c2C)OC1(C)C [Prestw-834],0.135 ± 1.8
15,CC(=O)Oc1cccc(O)c1,0.491 ± 0.014
16,CCN1CCN(C(=O)N[C@@H](C(=O)N[C@@H]2C(=O)N3[C@@H]2SC(C)(C)[C@@H]3C(=O)O)c2ccccc2)C(=O)C1=O [Prestw-755],0.165 ± 0.99
17,CN(C)CCC[C@@]1(c2ccc(F)cc2)OCc2cc(C#N)ccc21 [Prestw-692],-0.0616 ± 0.4
18,CN(C)CCC[C@@]1(c2ccc(F)cc2)OCc2cc(C#N)ccc21 [Prestw-1271],-1.03 ± 0.41
19,CCCC(=O)Nc1ncnc2c1ncn2[C@@H]1O[C@@H]2COP(=O)(O)O[C@H]2[C@H]1OC(=O)CCC [BUCLADESINE    Therap cat: vasodilator],0.484 ± 1.1
20,CCCC(=O)Nc1ncnc2c1ncn2[C@@H]1O[C@@H]2COP(=O)(O)O[C@H]2[C@H]1OC(=O)CCC [Prestw-813],-1.15 ± 0.88

# Rewritten with tabs: entries from further up.
row	SMILES	pThr231Tau/total Tau ratio Z-score
13	CN(C)C(=N)N=C(N)N [Prestw-4]	0.2 ± 1
14	CO[C@@H]1[C@@H](OC(N)=O)[C@@H](O)[C@H](Oc2ccc3c(O)c(NC(=O)c4ccc(O)c(CC=C(C)C)c4)c(=O)oc3c2C)OC1(C)C [Prestw-834]	0.135 ± 1.8
